Results: the supplement of paper PMC10849652
Some of the results follow.

The chains behind the UniProt entries cited, without tags or fusion partners. Where a name states a change or a piece, a line headed by the entry shows the natural chain unless it says otherwise.
UniProt Q14393: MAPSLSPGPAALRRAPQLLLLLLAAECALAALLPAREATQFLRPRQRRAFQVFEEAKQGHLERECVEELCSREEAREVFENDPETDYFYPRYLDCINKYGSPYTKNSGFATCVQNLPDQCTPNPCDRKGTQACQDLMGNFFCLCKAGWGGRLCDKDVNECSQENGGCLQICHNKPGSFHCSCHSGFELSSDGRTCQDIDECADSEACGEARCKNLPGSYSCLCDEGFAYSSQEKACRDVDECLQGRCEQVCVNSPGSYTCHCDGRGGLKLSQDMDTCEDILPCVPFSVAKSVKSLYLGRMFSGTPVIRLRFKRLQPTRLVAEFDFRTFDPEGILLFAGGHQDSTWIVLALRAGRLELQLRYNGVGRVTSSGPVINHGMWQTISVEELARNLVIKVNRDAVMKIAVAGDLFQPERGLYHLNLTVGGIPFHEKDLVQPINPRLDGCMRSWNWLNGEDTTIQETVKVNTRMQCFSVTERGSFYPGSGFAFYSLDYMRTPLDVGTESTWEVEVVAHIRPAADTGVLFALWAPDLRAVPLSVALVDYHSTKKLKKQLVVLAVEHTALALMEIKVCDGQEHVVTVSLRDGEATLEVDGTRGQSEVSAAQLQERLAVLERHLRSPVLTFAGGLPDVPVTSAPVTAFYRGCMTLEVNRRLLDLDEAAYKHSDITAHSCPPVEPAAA
UniProt Q9HCG7: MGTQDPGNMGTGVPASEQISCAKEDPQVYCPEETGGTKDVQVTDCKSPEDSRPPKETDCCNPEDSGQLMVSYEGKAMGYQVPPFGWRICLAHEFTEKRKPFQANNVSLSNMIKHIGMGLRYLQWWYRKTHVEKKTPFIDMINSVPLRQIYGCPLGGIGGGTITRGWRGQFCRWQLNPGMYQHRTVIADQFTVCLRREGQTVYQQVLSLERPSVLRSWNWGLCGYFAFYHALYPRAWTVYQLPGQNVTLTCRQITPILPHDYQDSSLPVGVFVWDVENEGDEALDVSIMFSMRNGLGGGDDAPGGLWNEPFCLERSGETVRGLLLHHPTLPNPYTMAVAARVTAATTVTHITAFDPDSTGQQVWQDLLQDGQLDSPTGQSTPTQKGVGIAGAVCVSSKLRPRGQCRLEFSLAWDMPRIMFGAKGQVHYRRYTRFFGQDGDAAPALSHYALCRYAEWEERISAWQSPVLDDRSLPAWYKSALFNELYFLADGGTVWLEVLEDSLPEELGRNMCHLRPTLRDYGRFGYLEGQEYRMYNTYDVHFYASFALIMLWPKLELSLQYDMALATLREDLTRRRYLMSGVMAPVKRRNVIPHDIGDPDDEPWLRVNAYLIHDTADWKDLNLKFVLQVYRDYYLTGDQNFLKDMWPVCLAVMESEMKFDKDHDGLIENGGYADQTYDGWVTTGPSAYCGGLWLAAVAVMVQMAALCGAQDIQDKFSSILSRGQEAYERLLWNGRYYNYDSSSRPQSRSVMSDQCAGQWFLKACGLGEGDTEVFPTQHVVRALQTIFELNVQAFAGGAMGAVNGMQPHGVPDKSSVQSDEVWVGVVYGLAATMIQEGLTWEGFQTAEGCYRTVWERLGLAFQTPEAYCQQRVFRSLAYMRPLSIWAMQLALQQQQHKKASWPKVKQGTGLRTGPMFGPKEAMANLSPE
UniProt P19440: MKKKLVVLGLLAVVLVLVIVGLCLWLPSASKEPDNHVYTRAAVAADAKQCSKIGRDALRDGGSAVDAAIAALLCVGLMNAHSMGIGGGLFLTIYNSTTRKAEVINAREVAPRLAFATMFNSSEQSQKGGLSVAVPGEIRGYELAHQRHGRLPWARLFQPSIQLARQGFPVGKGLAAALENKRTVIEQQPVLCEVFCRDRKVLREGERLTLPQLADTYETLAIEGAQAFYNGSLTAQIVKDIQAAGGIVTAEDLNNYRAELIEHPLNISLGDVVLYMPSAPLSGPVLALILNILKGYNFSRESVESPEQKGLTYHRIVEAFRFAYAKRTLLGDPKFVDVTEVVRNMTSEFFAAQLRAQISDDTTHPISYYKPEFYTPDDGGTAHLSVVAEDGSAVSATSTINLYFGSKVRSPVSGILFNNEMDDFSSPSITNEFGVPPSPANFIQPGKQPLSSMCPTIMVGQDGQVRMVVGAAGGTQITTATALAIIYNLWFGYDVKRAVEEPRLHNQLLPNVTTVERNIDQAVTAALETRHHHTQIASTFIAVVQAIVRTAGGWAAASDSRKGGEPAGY
UniProt O75879: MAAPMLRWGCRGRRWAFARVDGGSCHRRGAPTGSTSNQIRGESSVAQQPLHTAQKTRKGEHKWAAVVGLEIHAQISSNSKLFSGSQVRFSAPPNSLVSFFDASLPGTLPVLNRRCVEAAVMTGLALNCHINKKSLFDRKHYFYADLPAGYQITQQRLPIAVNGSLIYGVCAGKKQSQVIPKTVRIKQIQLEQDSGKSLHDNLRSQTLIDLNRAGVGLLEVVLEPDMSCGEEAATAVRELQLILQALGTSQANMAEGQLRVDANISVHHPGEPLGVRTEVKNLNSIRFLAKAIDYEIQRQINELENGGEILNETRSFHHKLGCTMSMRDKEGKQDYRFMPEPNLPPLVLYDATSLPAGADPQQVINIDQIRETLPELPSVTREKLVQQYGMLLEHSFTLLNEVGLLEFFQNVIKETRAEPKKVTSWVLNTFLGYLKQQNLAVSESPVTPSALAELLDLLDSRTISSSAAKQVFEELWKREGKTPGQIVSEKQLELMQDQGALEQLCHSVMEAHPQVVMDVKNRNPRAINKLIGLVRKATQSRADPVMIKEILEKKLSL
UniProt O43716: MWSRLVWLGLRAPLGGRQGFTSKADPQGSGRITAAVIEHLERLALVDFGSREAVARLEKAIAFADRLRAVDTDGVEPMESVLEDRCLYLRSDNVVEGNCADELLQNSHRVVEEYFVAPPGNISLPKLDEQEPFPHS
UniProt P19526, whole entry, looked up: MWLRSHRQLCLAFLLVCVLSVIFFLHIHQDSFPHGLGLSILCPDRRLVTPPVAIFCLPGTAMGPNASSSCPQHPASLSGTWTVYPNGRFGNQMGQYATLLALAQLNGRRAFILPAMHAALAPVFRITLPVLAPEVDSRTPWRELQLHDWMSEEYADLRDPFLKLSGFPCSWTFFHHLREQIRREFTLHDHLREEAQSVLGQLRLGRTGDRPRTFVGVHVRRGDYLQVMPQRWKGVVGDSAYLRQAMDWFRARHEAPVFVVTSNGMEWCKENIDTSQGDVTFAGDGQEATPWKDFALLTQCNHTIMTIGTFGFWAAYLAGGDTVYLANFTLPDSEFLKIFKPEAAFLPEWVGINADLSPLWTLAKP
UniProt O43524: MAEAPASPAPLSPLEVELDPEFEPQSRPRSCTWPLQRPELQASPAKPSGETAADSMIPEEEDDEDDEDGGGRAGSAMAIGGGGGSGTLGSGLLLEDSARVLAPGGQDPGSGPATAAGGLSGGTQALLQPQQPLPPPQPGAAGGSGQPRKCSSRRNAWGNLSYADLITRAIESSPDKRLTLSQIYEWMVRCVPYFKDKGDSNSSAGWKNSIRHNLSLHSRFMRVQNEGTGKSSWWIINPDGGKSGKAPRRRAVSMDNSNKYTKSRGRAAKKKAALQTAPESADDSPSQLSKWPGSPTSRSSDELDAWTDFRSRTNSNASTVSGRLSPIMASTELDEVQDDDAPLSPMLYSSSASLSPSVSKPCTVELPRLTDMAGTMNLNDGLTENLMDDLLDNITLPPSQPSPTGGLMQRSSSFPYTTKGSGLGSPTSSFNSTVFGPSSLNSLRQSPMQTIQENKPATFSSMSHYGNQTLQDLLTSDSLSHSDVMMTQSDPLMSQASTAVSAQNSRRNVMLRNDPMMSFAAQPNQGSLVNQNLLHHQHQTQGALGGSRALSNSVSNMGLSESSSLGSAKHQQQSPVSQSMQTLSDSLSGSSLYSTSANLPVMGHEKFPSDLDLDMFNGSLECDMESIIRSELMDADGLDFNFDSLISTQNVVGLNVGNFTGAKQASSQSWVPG
UniProt Q9UP38, whole entry, looked up: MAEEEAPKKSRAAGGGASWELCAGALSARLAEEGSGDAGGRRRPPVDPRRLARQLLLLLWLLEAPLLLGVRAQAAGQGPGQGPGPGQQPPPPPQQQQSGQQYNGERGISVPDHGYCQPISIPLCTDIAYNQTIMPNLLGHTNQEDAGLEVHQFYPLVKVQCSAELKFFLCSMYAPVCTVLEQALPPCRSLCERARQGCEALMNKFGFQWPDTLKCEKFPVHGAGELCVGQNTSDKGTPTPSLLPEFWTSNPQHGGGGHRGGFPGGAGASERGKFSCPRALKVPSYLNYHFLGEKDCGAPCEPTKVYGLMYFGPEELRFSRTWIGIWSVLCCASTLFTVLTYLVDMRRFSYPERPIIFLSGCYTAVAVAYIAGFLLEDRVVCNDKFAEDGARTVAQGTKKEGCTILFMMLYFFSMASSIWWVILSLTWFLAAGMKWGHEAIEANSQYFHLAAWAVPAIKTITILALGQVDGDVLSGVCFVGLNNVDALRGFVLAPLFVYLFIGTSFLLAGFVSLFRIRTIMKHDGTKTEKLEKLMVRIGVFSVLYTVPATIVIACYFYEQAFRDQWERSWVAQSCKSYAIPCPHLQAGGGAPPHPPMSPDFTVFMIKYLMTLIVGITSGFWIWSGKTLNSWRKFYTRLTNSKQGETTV
UniProt Q8IVV7: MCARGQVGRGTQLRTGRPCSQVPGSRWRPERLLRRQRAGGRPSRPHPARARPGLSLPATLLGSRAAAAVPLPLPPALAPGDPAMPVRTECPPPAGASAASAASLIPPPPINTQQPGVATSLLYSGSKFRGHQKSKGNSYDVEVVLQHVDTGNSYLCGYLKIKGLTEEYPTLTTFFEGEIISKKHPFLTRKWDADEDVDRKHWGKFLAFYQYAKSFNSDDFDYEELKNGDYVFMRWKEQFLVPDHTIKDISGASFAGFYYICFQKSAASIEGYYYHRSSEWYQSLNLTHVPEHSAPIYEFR

Assays:
Experiment in all cases: log2 fold change, soluble protein after heating vs DMSO (PISA); higher = thermal stabilisation; K562 cells, 10 uM, 30 min; active = over 0.2 and 3.5 SD of the protein, either way, in both replicates (recomputed)
[1] = compound: CS(=O)(=O)c1ccc(-c2cnc(N)c(C(=O)Nc3ccccc3)n2)cc1
In short: (§1)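 K562 cells at 2×10^6 cells/mL were exposed to 10 μM compound for 30 min, then aliquots were heated for 3 min across 48°C-58°C, pooled, and extracted in PBS containing 0.5% NP-40 at 4°C. The supernatant after 21,000xg for 90 min was taken as soluble protein and measured by TMTpro 16plex LC-MS/MS with channel sums equalised. Thermal stability is reported relative to control samples, with values from duplicates. Fold changes are given on a log2 scale.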

[2] = compound: C[C@@H]1COCCN1C2=NC(=NC(=C2)C3(CC3)S(=O)(=O)C)C4=C5C=CNC5=CC=C4
In short: as §1

gandotinib = compound: Cc1cc(Nc2cc(CN3CCOCC3)c3nc(C)c(Cc4ccc(Cl)cc4F)n3n2)n[nH]1 [gandotinib]
In short: as §1

[3] = compound: Cc1cccc(CC(=O)N2CCc3c2ccc(-c2cn(C)c4ncnc(N)c24)c3F)n1
In short: as §1

crizotinib = compound: C[C@@H](Oc1cc(-c2cnn(C3CCNCC3)c2)cnc1N)c1c(Cl)ccc(F)c1Cl [crizotinib]
In short: as §1

[4] = compound: C[C@H](C1=CC=C(C=C1)C(=O)NC2=C3C=CNC3=NC=C2)N
In short: as §1

[5] = compound: Cc1cc(SCc2sc(-c3ccc(C(F)(F)F)cc3)nc2C)ccc1OCC(=O)O
In short: as §1

doramapimod = compound: Cc1ccc(-n2nc(C(C)(C)C)cc2NC(=O)Nc2ccc(OCCN3CCOCC3)c3ccccc23)cc1 [doramapimod]
In short: as §1

bafetinib = compound: Cc1ccc(NC(=O)c2ccc(CN3CC[C@H](N(C)C)C3)c(C(F)(F)F)c2)cc1Nc1nccc(-c2cncnc2)n1 [bafetinib]
In short: as §1

nilotinib = compound: Cc1cn(-c2cc(NC(=O)c3ccc(C)c(Nc4nccc(-c5cccnc5)n4)c3)cc(C(F)(F)F)c2)cn1 [nilotinib]
In short: as §1

[6] = compound: Cc1nc(Nc2n[nH]c3c2CN(C(=O)N[C@H](CN(C)C)c2ccccc2)C3(C)C)c2sccc2n1
In short: as §1

dasatinib = compound: Cc1nc(Nc2ncc(C(=O)Nc3c(C)cccc3Cl)s2)cc(N2CCN(CCO)CC2)n1 [dasatinib]
In short: as §1

[7] = compound: Cc1ncc(-c2ccnc(Nc3ccc(S(C)(=O)=O)cc3)n2)n1C(C)C
In short: as §1

[8] = compound: Cn1cc(-c2ccc3c(c2)CCN3C(=O)Cc2cccc(C(F)(F)F)c2)c2c(N)ncnc21
In short: as §1

tipifarnib = compound: Cn1cncc1[C@@](N)(c1ccc(Cl)cc1)c1ccc2c(c1)c(-c1cccc(Cl)c1)cc(=O)n2C [tipifarnib]
In short: as §1

mubritinib = compound: FC(F)(F)c1ccc(/C=C/c2nc(COc3ccc(CCCCn4ccnn4)cc3)co2)cc1 [mubritinib]
In short: as §1

duvelisib = compound: C[C@H](Nc1ncnc2nc[nH]c12)c1cc2cccc(Cl)c2c(=O)n1-c1ccccc1 [duvelisib]
In short: as §1

tozasertib = compound: Cc1cc(Nc2cc(N3CCN(C)CC3)nc(Sc3ccc(NC(=O)C4CC4)cc3)n2)n[nH]1 [tozasertib]
In short: as §1

ispinesib = compound: Cc1ccc(C(=O)N(CCCN)[C@@H](c2nc3cc(Cl)ccc3c(=O)n2Cc2ccccc2)C(C)C)cc1 [ispinesib]
In short: as §1

[9] = compound: Cn1cc(-c2ccc3nnc(C(F)(F)c4ccc5ncccc5c4)n3n2)cn1
In short: as §1

Measured: log2 fold change

GAS6 isoform 1 (UniProt Q14393)
inactive: [1] -0.032 | [2] 0.01 | gandotinib -0.095 | [3] -0.154

GBA2 (UniProt Q9HCG7)
inactive: [1] 0.091 | crizotinib 0.094 | [2] 0.051 | [4] 0.004 | [5] 0.067 | doramapimod 0.056 | bafetinib 0.045 | nilotinib -0.057 | [6] -0.061 | dasatinib -0.144 | [7] 0.007 | [8] 0.138 | tipifarnib 0.091 | mubritinib 0.234

GGT1 (UniProt P19440)
inactive: [1] 0.026 | crizotinib 0.092 | [2] -0.029 | duvelisib -0.138 | gandotinib 0.025 | tozasertib -0.015 | [5] 0.184 | doramapimod -0.003 | bafetinib -0.022 | [3] -0.063 | dasatinib 0.032 | tipifarnib 0.025 | mubritinib 0.001

GATB (UniProt O75879)
inactive: [1] 0.223 | crizotinib -0.072 | [2] 0.18 | duvelisib 0.202 | gandotinib -0.109 | tozasertib 0.188 | [5] 0.079 | doramapimod 0 | ispinesib 0.148 | [3] -0.147 | nilotinib -0.122 | [6] -0.115 | dasatinib -0.239 | [7] 0.025 | [9] 0.296 | tipifarnib -0.364 | mubritinib -0.049

GATC (UniProt O43716)
inactive: crizotinib 0.044 | [2] 0.146 | [4] -0.043 | duvelisib 0.21 | gandotinib 0 | tozasertib 0.034 | [5] -0.139 | doramapimod 0.012 | ispinesib 0.083 | bafetinib -0.146 | [3] -0.057 | nilotinib 0 | [6] 0.023 | dasatinib -0.039 | [7] 0.02 | [8] -0.06 | [9] 0.265 | tipifarnib 0.124 | mubritinib 0.002

FUT1 (UniProt P19526)
inactive: [1] -0.172 | [2] 0.1

Reprinted from the results shown (two entries):
GBA2 (UniProt Q9HCG7)
inactive: [1] 0.091 | crizotinib 0.094 | [2] 0.051 | [4] 0.004 | [5] 0.067 | doramapimod 0.056 | bafetinib 0.045 | nilotinib -0.057 | [6] -0.061 | dasatinib -0.144 | [7] 0.007 | [8] 0.138 | tipifarnib 0.091 | mubritinib 0.234

GGT1 (UniProt P19440)
inactive: [1] 0.026 | crizotinib 0.092 | [2] -0.029 | duvelisib -0.138 | gandotinib 0.025 | tozasertib -0.015 | [5] 0.184 | doramapimod -0.003 | bafetinib -0.022 | [3] -0.063 | dasatinib 0.032 | tipifarnib 0.025 | mubritinib 0.001

Following part.

FOXO3 (UniProt O43524)
inactive: [1] -0.028 | [2] -0.444 | [4] 0.013 | gandotinib -0.061 | [5] 0.16 | doramapimod 0.005 | ispinesib -0.095 | [3] 0.002 | dasatinib -0.14 | [8] 0 | [9] -0.013 | tipifarnib -0.139 | mubritinib -0.057
active: crizotinib -0.423

FZD1 (UniProt Q9UP38)
inactive: [1] 0.111 | [2] -0.082 | [4] -0.088 | bafetinib 0.045 | nilotinib -0.228 | [6] 0.627 | [7] 0.243 | [8] -0.012

GID4 (UniProt Q8IVV7)
inactive: [1] 0 | [2] 0.054 | [4] -0.006 | gandotinib 0.034 | [5] 0.032 | ispinesib 0.044 | bafetinib -0.059 | [3] -0.058 | nilotinib -0.051 | [6] 0.003 | dasatinib -0.086 | [7] 0.038 | [8] -0.042 | [9] -0.032 | tipifarnib 0.116 | mubritinib -0.029
